# Assay results from US11571411B2, “Use of a bisamide derivative of malonic acid for treating allergic and other diseases in humans and animals” (PHARMENTERPRISES ALLERGY LLC, priority 2018, dated 2023).
# The source gives many values for each of these; only a part stands here.
# System: histamine-induced nasal congestion model
# Assay: Histamine-induced nasal congestion model in dogs, nasal administration of 1% solution
# Type: in vivo, Beagle dogs
# Experimental: A histamine-induced nasal congestion model in dogs was performed according to the standard procedure [Tiniakov R. L., Tiniakova O. P., McLeod R. L., Hey J. A., Yeates D. B. Canine model of nasal congestion and allergic rhinitis//J Appl Physiol. 2003. V.94(5). P.1821-1828]. Beagle dogs were injected to the nasal cavity with a 5% histamine solution in a volume of 250 μl/nostril. The volume of the nasal cavity of the right and left nostrils was measured using a rhinometer before and 5, 10, 15, 20, 30, 40, 50 and 60 minutes after administration of histamine. Five experiments were carried out in which Compound I was administered intranasally once in the form of a 1% solution in a volume of 50 μl at different time periods: 1) 5 minutes after the administration of histamine; 2) right before administration of histamine; 3) 3 hours before administration of histamine; 4) […] administration of histamine; and 5) 8 hours before administration of histamine.
# [1] = 1% solution intranasally 5 minutes after histamine administration, 5 minutes after histamine
# [2] = 1% solution intranasally 5 minutes after histamine administration, 10 minutes after histamine
# [3] = 1% solution intranasally 5 minutes after histamine administration, 15 minutes after histamine
# [4] = 1% solution intranasally 5 minutes after histamine administration, 20 minutes after histamine
# [5] = 1% solution intranasally 5 minutes after histamine administration, 30 minutes after histamine
# [6] = 1% solution intranasally 5 minutes after histamine administration, 40 minutes after histamine
# [7] = 1% solution intranasally 5 minutes after histamine administration, 50 minutes after histamine
# [8] = 1% solution intranasally 5 minutes after histamine administration, 60 minutes after histamine
# [9] = 1% solution intranasally 5 minutes after histamine administration, before histamine administration
# [10] = 1% solution intranasally 3 hours before histamine administration, 5 minutes after histamine
# [11] = 1% solution intranasally 3 hours before histamine administration, 10 minutes after histamine
# [12] = 1% solution intranasally 3 hours before histamine administration, 15 minutes after histamine
# [13] = 1% solution intranasally 3 hours before histamine administration, 20 minutes after histamine
# [14] = 1% solution intranasally 3 hours before histamine administration, 30 minutes after histamine
# [15] = 1% solution intranasally 3 hours before histamine administration, 40 minutes after histamine
# [16] = 1% solution intranasally 3 hours before histamine administration, 50 minutes after histamine
# [17] = 1% solution intranasally 3 hours before histamine administration, 60 minutes after histamine
# [18] = 1% solution intranasally 3 hours before histamine administration, before histamine administration
# [19] = 1% solution intranasally 6 hours before histamine administration, 5 minutes after histamine
# [20] = 1% solution intranasally 6 hours before histamine administration, 10 minutes after histamine
# [21] = 1% solution intranasally 6 hours before histamine administration, 15 minutes after histamine
# [22] = 1% solution intranasally 6 hours before histamine administration, 20 minutes after histamine
# [23] = 1% solution intranasally 6 hours before histamine administration, 30 minutes after histamine
# [24] = 1% solution intranasally 6 hours before histamine administration, 40 minutes after histamine
# [25] = 1% solution intranasally 6 hours before histamine administration, 50 minutes after histamine
# [26] = 1% solution intranasally 6 hours before histamine administration, 60 minutes after histamine
smiles,measurement,setting,value
"O=C(CC(=O)NCCc1cnc[nH]1)NCCc1cnc[nH]1 [Compound I, N,N′-bis(2-(1H-imidazol-5-yl)ethyl)malonamide]","Volume of the nasal cavity, left nostril",[1],4.2 ± 0.4&$ cm^3
same,"Volume of the nasal cavity, right nostril",[1],4.8 ± 0.1&$ cm^3
same,"Volume of the nasal cavity, left nostril",[2],4.3 ± 0.2$ cm^3
same,"Volume of the nasal cavity, right nostril",[2],4.7 ± 0.2&$ cm^3
same,"Volume of the nasal cavity, left nostril",[3],4.6 ± 0.5 cm^3
same,"Volume of the nasal cavity, right nostril",[3],4.6 ± 0.3& cm^3
same,"Volume of the nasal cavity, left nostril",[4],4.2 ± 0.2& cm^3
same,"Volume of the nasal cavity, right nostril",[4],4.6 ± 0.4 cm^3
same,"Volume of the nasal cavity, left nostril",[5],4.6 ± 0.1& cm^3
same,"Volume of the nasal cavity, right nostril",[5],4.9 ± 0.2&$ cm^3
same,"Volume of the nasal cavity, left nostril",[6],4.5 ± 0.3& cm^3
same,"Volume of the nasal cavity, right nostril",[6],4.8 ± 0.4& cm^3
same,"Volume of the nasal cavity, left nostril",[7],4.2 ± 0.2& cm^3
same,"Volume of the nasal cavity, right nostril",[7],4.1 ± 0.4 cm^3
same,"Volume of the nasal cavity, left nostril",[8],5.2 ± 0.5& cm^3
same,"Volume of the nasal cavity, right nostril",[8],5.2 ± 0.3&$ cm^3
same,"Volume of the nasal cavity, left nostril",[9],3.9 ± 0.4 cm^3
same,"Volume of the nasal cavity, right nostril",[9],3.8 ± 0.3 cm^3
same,"Volume of the nasal cavity, left nostril",[10],2.4 ± 0.3$ cm^3
same,"Volume of the nasal cavity, right nostril",[10],2.2 ± 0.3$ cm^3
same,"Volume of the nasal cavity, left nostril",[11],2.9 ± 0.3$ cm^3
same,"Volume of the nasal cavity, right nostril",[11],3.3 ± 0.4$ cm^3
same,"Volume of the nasal cavity, left nostril",[12],2.7 ± 0.4&$ cm^3
same,"Volume of the nasal cavity, right nostril",[12],2.8 ± 0.4&$ cm^3
same,"Volume of the nasal cavity, left nostril",[13],2.2 ± 0.2&$ cm^3
same,"Volume of the nasal cavity, right nostril",[13],2.1 ± 0.2&$ cm^3
same,"Volume of the nasal cavity, left nostril",[14],2.9 ± 0.2&$ cm^3
same,"Volume of the nasal cavity, right nostril",[14],3.0 ± 0.1&$ cm^3
same,"Volume of the nasal cavity, left nostril",[15],3.6 ± 0.1&$ cm^3
same,"Volume of the nasal cavity, right nostril",[15],3.6 ± 0.1&$ cm^3
same,"Volume of the nasal cavity, left nostril",[16],2.8 ± 0.2$ cm^3
same,"Volume of the nasal cavity, right nostril",[16],2.7 ± 0.2$ cm^3
same,"Volume of the nasal cavity, left nostril",[17],5.0 ± 0.2 cm^3
same,"Volume of the nasal cavity, right nostril",[17],5.2 ± 0.3 cm^3
same,"Volume of the nasal cavity, left nostril",[18],4.8 ± 0.2 cm^3
same,"Volume of the nasal cavity, right nostril",[18],4.9 ± 0.2 cm^3
same,"Volume of the nasal cavity, left nostril",[19],3.6 ± 0.2& cm^3
same,"Volume of the nasal cavity, right nostril",[19],3.4 ± 0.2& cm^3
same,"Volume of the nasal cavity, left nostril",[20],3.8 ± 0.2&$ cm^3
same,"Volume of the nasal cavity, right nostril",[20],4 ± 0.3&$ cm^3
same,"Volume of the nasal cavity, left nostril",[21],3.9 ± 0.5& cm^3
same,"Volume of the nasal cavity, right nostril",[21],3.5 ± 0.2&$ cm^3
same,"Volume of the nasal cavity, left nostril",[22],3.7 ± 0.1&$ cm^3
same,"Volume of the nasal cavity, right nostril",[22],3.6 ± 0.2&$ cm^3
same,"Volume of the nasal cavity, left nostril",[23],4.3 ± 0.2& cm^3
same,"Volume of the nasal cavity, right nostril",[23],3.8 ± 0.1&$ cm^3
same,"Volume of the nasal cavity, left nostril",[24],3.3 ± 0.1$ cm^3
same,"Volume of the nasal cavity, right nostril",[24],3.8 ± 0.2$ cm^3
same,"Volume of the nasal cavity, left nostril",[25],3.9 ± 0.1$ cm^3
same,"Volume of the nasal cavity, right nostril",[25],4.2 ± 0.2 cm^3
same,"Volume of the nasal cavity, left nostril",[26],4.0 ± 0.0 cm^3
same,"Volume of the nasal cavity, right nostril",[26],4.5 ± 0.3$ cm^3
same,"Volume of the nasal cavity, left nostril","1% solution intranasally 6 hours before histamine administration, before histamine administration",4.5 ± 0.2 cm^3
